Measured values: PubChem BioAssay AID1671190 (National Center for Advancing Translational Sciences (NCATS), 2021)
Several values for one entry are separate records, joined by “and”; a condition that tells them apart may be missing. Identical values can stand only once. Hit rate of the full screen: of about 580,000 compounds, about 6,100 (1.1%) were called active. This list was built around the results that the source calls inconclusive (neither active nor inactive); the mix of calls is not that of the screen. The call rests on the fitted dose curve; in most records, active means well fitted inhibition curve with a large enough effect; inconclusive means small, poorly fitted or top-dose-only effect, or another doubt; inactive means no such curve, though single readings can be large or run the other way. Potencies beside an inconclusive call are fits to weak or partial responses and may not hold up.

The chains behind the UniProt entries cited, without tags or fusion partners. Where a name states a change or a piece, a line headed by the entry shows the natural chain unless it says otherwise.
UniProt P18054: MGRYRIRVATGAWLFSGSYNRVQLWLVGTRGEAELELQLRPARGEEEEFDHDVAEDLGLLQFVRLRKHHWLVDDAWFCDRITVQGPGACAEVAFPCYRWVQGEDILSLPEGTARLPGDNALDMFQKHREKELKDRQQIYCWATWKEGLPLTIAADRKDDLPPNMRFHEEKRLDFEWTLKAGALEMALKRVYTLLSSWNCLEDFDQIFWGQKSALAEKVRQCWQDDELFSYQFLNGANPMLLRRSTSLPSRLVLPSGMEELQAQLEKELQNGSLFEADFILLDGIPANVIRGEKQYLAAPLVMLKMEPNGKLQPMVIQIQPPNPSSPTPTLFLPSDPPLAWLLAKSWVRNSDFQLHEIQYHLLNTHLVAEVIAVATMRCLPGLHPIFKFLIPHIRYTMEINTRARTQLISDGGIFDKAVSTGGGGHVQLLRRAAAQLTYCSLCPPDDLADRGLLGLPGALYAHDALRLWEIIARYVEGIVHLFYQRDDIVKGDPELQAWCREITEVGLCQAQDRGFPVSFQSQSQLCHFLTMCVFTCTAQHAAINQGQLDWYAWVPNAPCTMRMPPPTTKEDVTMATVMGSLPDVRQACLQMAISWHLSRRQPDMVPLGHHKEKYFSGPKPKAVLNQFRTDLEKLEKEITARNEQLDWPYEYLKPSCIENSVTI

What follows are molecules tested against Polyunsaturated fatty acid lipoxygenase ALOX12 (Homo sapiens) (UniProt P18054) (assay: Primary qHTS assay for inhibitors of human arachidonate 12S-lipoxygenase (ALOX12): Round 2). Details: purified 12hLO, xylenol orange hydroperoxide absorbance; series mostly up to 108 µM.
Summary of the method: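 Purified human 12hLO at 150 nM in 25 mM Hepes, 0.01% Triton X-100, pH 7.0, preincubated 15 min at room temperature with compound. Reaction started with 40 uM arachidonic acid, 30 min at room temperature. Hydroperoxide measured by Fe-xylenol orange, 573/405 nm absorbance ratio.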
Potency means the concentration at half of the fitted maximal effect.

Compound	Potency
CN(C)c1ccc(C=c2c3ccccc3n3c2cc(-c2ccccc2)[n+]3C)cc1	active: 39.8 µM
COc1ccc(C(=O)N[C@@H]2CN(C(=O)NC(C)C)CCC[C@H]2O)cc1	inconclusive: 141 µM [inhibitor, partial curve, poor fit]
O=C1C=CC(=Nc2ccc3c(c2)Cc2ccccc2-3)O1	inconclusive: 35.5 µM [inhibitor, partial curve, poor fit]
CS(=O)(=O)N(CC(=O)NC1CC2CCC1C2)c1cccc(C(F)(F)F)c1 (centres undefined)	inconclusive: 35.5 µM [inhibitor, single point]
O=C(/C=C/c1ccc2c(c1)OCO2)NCCSCc1c(Cl)cccc1Cl	inconclusive: 50.1 µM [inhibitor, partial curve, poor fit]
COCCn1c(SCc2ccc(C(=O)OC)o2)nc2ccccc2c1=O	inactive
C=CCN(C)C(=O)[C@@H](C)C1CC[C@@]2(C)Cc3sc(-c4cccnc4)nc3[C@@H](C)[C@@H]2[C@H]1O (some centres undefined)	inconclusive: 56.2 µM [inhibitor, full curve, poor fit]
COc1ccc2c3c(n(C)c2c1)[C@H](CO)N(C(=O)c1ccccn1)CC31CCN(C(=O)Cc2ccccc2)CC1	inconclusive: 35.5 µM [inhibitor, partial curve]
COc1cccc(NC(=O)N[C@H]2[C@H](O)[C@@H](N3CCC(Cc4ccccc4)CC3)[C@@H]3OC[C@H]2O3)c1	inconclusive: 25.1 µM [inhibitor, full curve]
CC1CCN(C(CNC(=O)c2ccccc2SC(F)F)c2cccs2)CC1 (centres undefined)	active: 31.6 µM
CCc1ccc(C(C)NC(=O)CSc2nnc(C3CC3)n2CC(N)=O)cc1 (centres undefined)	inconclusive: 39.8 µM [inhibitor, partial curve, poor fit]
Cc1ccccc1OCCN1C(=O)C(=O)c2cccc(C)c21	inconclusive: 17.8 µM [inhibitor, partial curve] and inconclusive: 44.7 µM [inhibitor, partial curve, poor fit]
O=c1cc(C=NNc2ccc([N+](=O)[O-])cc2)[nH]c(=O)[nH]1	inconclusive: 50.1 µM [inhibitor, partial curve, poor fit]
Cc1cc(N2CCN(S(=O)(=O)c3ccc(Cl)c(C(F)(F)F)c3)CC2)nc(C(C)C)n1	inactive
Cc1cccc(OCCc2noc(C3CCCCN3S(=O)(=O)c3cn(C)cn3)n2)c1 (centres undefined)	inactive
O=C(CSc1nnc(NC2CC2)s1)Nc1ccc(Cl)cc1	inconclusive: 39.8 µM [inhibitor, partial curve]
O=C(O)CN1C(=O)C2(OCCO2)c2cc(Br)ccc21	inconclusive: 112 µM [inhibitor, single point]
COc1cc(CN2CCN(c3ccc(C)cc3)CC2)cc([N+](=O)[O-])c1O	inconclusive: 15.8 µM [inhibitor, full curve]
CC(C)NC(=O)NC(=O)CN(C)C(C)C(C)(C)C (centres undefined)	inactive
C[N+]1(CCCCCCC(=O)/C=N/O)CCCCCC1	inactive
Cc1cccc(NC(=O)COc2ncnc3ccccc23)c1	inconclusive: 56.2 µM [inhibitor, partial curve, poor fit]
COc1ccc(NC(C)=O)cc1NC(C)C(=O)N(C)Cc1cccc(F)c1 (centres undefined)	inactive

Compound	Potency
Cc1ccc(Cn2ccn(CC(=O)Nc3c(C)cc(C)cc3C)c(=O)c2=O)cc1	inconclusive: 112 µM [inhibitor, partial curve, poor fit]
CC(NC(=O)c1n[nH]c(=O)c2ccccc12)c1nnc2n1CCCCC2 (centres undefined)	inactive
Cc1ccc(-n2cccc2CC(=O)N2CCOCC2)cc1	inactive
CCCCn1c(=O)n(CC(=O)Nc2cccc(C(C)=O)c2)c(=O)c2c1ncn2Cc1ccco1	inconclusive: 15.8 µM [inhibitor, partial curve]
O=C(O)c1cc(-c2ccccn2)nc2ccc(F)cc12	inactive
CCn1cnc2c1c(=O)n(CC(=O)Nc1ccccc1N1CCCC1)c(=O)n2Cc1ccccc1	inconclusive: 50.1 µM [inhibitor, partial curve, poor fit]
O=c1[nH]c(N2CCOCC2)nc2nccc(-c3ccsc3)c12	inconclusive: 28.2 µM [inhibitor, single point]
Cc1cc(F)c(Nc2ncnc3cc(OCc4ccccc4)ccc23)cc1O	inconclusive: 31.6 µM [inhibitor, partial curve, poor fit]
O=C(C(=O)N1CCCC1)c1c(-c2ccccc2)[nH]c2ccccc12	inactive
Cc1ccc2c(c1C)NC(=O)C2(O)CC(=O)c1ccc2c(c1)OCO2 (centres undefined)	inconclusive: 112 µM [inhibitor, single point]
Cc1cc(NN)nc2ccc(Cl)cc12	inconclusive: 28.2 µM [inhibitor, full curve, poor fit]
O=C(CN1C(=O)C2(CCCC2)NC[C@H]1c1cc(F)cc(F)c1)Nc1ccc2c(c1)C[C@@]1(C2)C(=O)Nc2ncccc21	inconclusive: 12.2 µM [inhibitor, full curve, poor fit]
Cc1ccc2nc(C)c(C(=O)N3CCN(Cc4ccccc4)CC3)cc2c1	inactive
COCCNC(=O)CCc1c(C)nc2c(c(C)nn2-c2ccc(C)cc2)c1C	inconclusive: 70.8 µM [inhibitor, partial curve, poor fit]
C=C(C)CNC(=S)/N=c1\scc(C)n1CC	inconclusive: 44.7 µM [inhibitor, partial curve, poor fit]
COc1cccc(CC(=O)Nc2ccc3c(c2)CN(Cc2ccccc2Cl)C(=O)C(C)O3)c1 (centres undefined)	inconclusive: 35.5 µM [inhibitor, full curve, poor fit]
CC(=O)Nc1ccc(NC(=O)CSc2ccc(-c3ccc4c(c3)OCO4)nn2)cc1	inconclusive: 15.8 µM [inhibitor, partial curve, poor fit]
CCOc1ccc(NC(=O)c2c(NCc3sccc3C)sc3c2CCCCC3)cc1	inconclusive: 28.2 µM [inhibitor, partial curve]
COc1ccc(CNC(=O)c2ccc3c(c2)N(Cc2ccccc2F)C(=O)c2ccccc2S3(=O)=O)cc1	inactive
CC(C)CC(NC(=O)CSc1ccccc1)C(=O)N(C)C (centres undefined)	inconclusive: 39.8 µM [inhibitor, single point]
CC(C)(C)NCc1cccn1-c1sc2c(c1C#N)CCCC2	inconclusive: 0.891 µM [inhibitor, full curve]
CCOC(=O)C1CCC(CNCc2ccc(Cl)cc2)CC1 (centres undefined)	inconclusive: 31.6 µM [inhibitor, partial curve]

Compound	Potency
COc1ccc2c(c1)[C@@H](NC(=O)OCc1ccccc1)[C@H](C)[C@@H](c1ccccc1)N2Cc1cccc(F)c1	inconclusive: 79.4 µM [inhibitor, single point]
CC(/C=C/c1cccnc1)=C\C(=O)O	inconclusive: 63.1 µM [inhibitor, partial curve, poor fit]
COc1ccc(CCNC(=O)COc2ccc(S(=O)(=O)NC3CCCCC3)cc2Cl)cc1OC	inactive
O=C(Nc1cc(Cl)ccc1N1CCOCC1)c1cnccn1	inconclusive: 39.8 µM [inhibitor, single point]
CCc1ccccc1NC(=O)CSC1=Nc2ccccc2C2=NC(Cc3ccccc3)C(=O)N12 (centres undefined)	inconclusive: 56.2 µM [inhibitor, partial curve, poor fit]
O=S1(=O)C=C(Sc2ccc(Cl)cc2)c2ccccc2C1Cc1ccc(F)cc1 (centres undefined)	inconclusive: 44.7 µM [inhibitor, partial curve, poor fit]
Cc1ccc2c(c1)N(C(=O)CCC(=O)NCCCN1CCOCC1)CCO2	inactive
Cc1cccc(N(C(=O)c2snc(C(N)=O)c2N)C(C(=O)NC2CCCC2)c2ccco2)c1 (centres undefined)	inconclusive: 12.6 µM [inhibitor, partial curve, poor fit]
Cc1ccc(Cn2c(=N)n(CC(O)COc3ccccc3)c3ccccc32)cc1 (centres undefined)	inconclusive: 79.4 µM [inhibitor, partial curve, poor fit]
CSc1nc2ccccc2n1Cc1cccc(F)c1	inactive
CCN(CCNCC(O)COCc1ccc(Cl)cc1)c1cccc(C)c1 (centres undefined)	inconclusive: 12.6 µM [inhibitor, full curve, poor fit]
COc1ccc(C2/C(=C(\O)c3cc(C)ccc3C)C(=O)C(=O)N2CCN(C)C)cc1OC (centres undefined)	inconclusive: 158 µM [inhibitor, partial curve, poor fit]
CCC(C(=O)Nc1cc(OC)c(NC(=O)c2ccccc2)cc1OC)c1ccccc1 (centres undefined)	inconclusive: 0.631 µM [inhibitor, full curve, poor fit]
N#Cc1c(NC(=O)CSc2nnc(-c3ccccc3)o2)sc2c1CCCC2	inconclusive: 0.891 µM [inhibitor, full curve, poor fit]
O=C(NCCC(=O)N(Cc1ccco1)Cc1cccs1)c1ccccc1Cl	inactive
CCOc1ccc(NC(=O)CSc2nccc(-c3cccc(OC(F)F)c3)n2)cc1	inactive
CCc1ccccc1NC(=O)Cn1c(=O)n(-c2ccc(CC(=O)NC3CC3)cc2)c(=O)c2ccccc21	inactive
CCN(CC)S(=O)(=O)c1cc(NC(=O)CNc2cccc(S(=O)(=O)N3CCOCC3)c2)ccc1C	inactive
COc1ccc(/C=C2\Sc3ccc(C(=O)N4CCOCC4)cc3N(C)C2=O)cc1	inactive
Cc1ccc2c(C(=O)CN3CCSCC3)c(C)[nH]c2c1	inconclusive: 100 µM [inhibitor, single point]
